This passage reports binding results from US20070003534A1.

In assay [1] the target is bait c-Jun protein from the pCMV-cJun(502-957)CBPzz vector. Kind of assay: IVV cotranslation selection, bait c-Jun.
Assay [2] shares this target. Kind of assay: pull-down on IgG agarose, C-terminal labeled prey, bait c-Jun.
Assay [3] shares this target. As to the kind of experiment: pull-down on IgG agarose, C-terminal labeled prey, with and without bait c-Jun, SDS-PAGE fluorescence.

These are yes or no findings as the source states them, for the method shown. Some entries that bind do so weakly or less than the wild type.

B1: SEQ ID NO 13 (protein)
chain: LRKWKGMLSRLRELRKEEETLLRLKAALHDQLNRLKVEELALQSMINSRGRTE
On to B1, for which the binding entry in assay [1] was “binds”.

B2: SEQ ID NO 105 (protein)
chain: MKRIFSCSSSQVAVEKWNRRDQKLLEAVQRGDVGRVAALASRKSARPTKLDSNGQSPFHLAASKGLTECLTILLANGADINSKNEDGSTALHLATISCQPQCVKVLLQHGANEDAVDAENRSPLHWAASSGCASSVLLLCDHEAFLDVLDNDGRTPLMIASLGGHAAICSQLLQRGARVNVTDKDDKSALILACEKGSAEVAELLLSHGADAGAVDSLGHNALHYALRTQDKELWRLLQQALNRRRRGGHGLVQHPDHPSQASSCEPRVGSPPKNSRKVEPEEEQEEEGEERCSEEWRWKFEEEQRKVHQLEQELVRKTDECKAHAAAFSSLEEQIREQAQELGHLLVQEPGAPGNQGPGLRPEGDGMEEGCPLNLLAERIQELKKQQKALATINPTLVPKRAEELAPAEIHHEVHRKSQPEQGLPQGPSSETTGKATGQQPNTNGGQNLGLQNTEQVCAGQKERTPAPGTETAGTVGEPVGIAMNQLLLQLREELAAVWREKDAARGALSRPVLEGALGTPRAEAAAAAWEKMEARLERVLVRLDGAKMGLHVKPEVPVQGSRDGAPKAVPGCSKEQEEKKALGTRGEPLGAPGKEQALGGGLAKGQLEKEVSALRLSNSNLLEELGELGRERQRLQGELQSLTQRLHREFVPKPEAQVQLQQLRRSVGMLTEELAMEKEATDKLRRLLASQTSGLQGLWKCLPPDLVGKGNTQSTAAEPLEELQACISTLVDRHLEAQRVLARLEEENQQLRGSLAPCGEPEASLKVTASPQVAALEEDLGMLEEELRAVQATMSGKSQEICKLKQLLYQATEEVAELRAREAASLRQHEKTRGSLVAQAQAWGQELKVVLEKYNTACREMTRLRDTVAEERRRSEDLAARAAEQERQAGEMRGRSEQFEKTAELLKEKTNHLIGACRDKEAKIKELLKKLEQLSEEVLEVRGENAHLALQLQDSQKNHEEIISTYRSHLLNAARGYMEQDVYNILLRILSMQE
With B2, the binding entry in assay [1] was “binds”.

B3: SEQ ID NO 28 (protein)
chain: LRKWKGMLSRLQELRKEEETLLRLKAALHDQLNRLKVEELALQSMINSRGRTETLSSQPAPES
Take B3: the binding entry in assay [1] is “binds”.

B4: SEQ ID NO 29 (protein)
chain: LRKWKGMLSRLQELRKEEETLLRLNAALHDQLNRLKVEELALQSMINSRGRTETLSSQPAPES
Take B4: the binding entry in assay [1] is on record as “binds”.

B5: SEQ ID NO 14 (protein)
chain: LRKWKGMLSRLQGLRKEEETLLRLKAALHDQLNRLKVEELALQSMINSRGK
For B5, in assay [1], the binding result is “binds”.

B6: SEQ ID NO 37 (protein)
chain: RKWKGMLSRLQELRMEEETLLRLKAALHDQLNLLKVEELALQSMINSRGRTETLSSQPAPEQLCDMSLHVDNEVTINLTTP
Regarding B6, in assay [1], the binding entry is reported as “binds”.

B7: SEQ ID NO 45 (protein)
chain: RKWKGTLSRLQDLRKEEETLLRLKAALHDQLNRLKVEELALQSMINSRGRTETLSSQPAPEQLCDVSLHVDNEVTINQTRP
As for B7, in assay [1], the binding entry is listed as “binds”.
On to KWKGMLSRLKELRKEEETLLRLKAALHDQLNRLKVEELALQSMINSRGR [SEQ ID NO 46], for which the binding result in assay [1] is “binds”.

B8: SEQ ID NO 123 (protein)
chain: ALLQVNQTELMQLDMEGMSQYFQRVIPHQFDSCPDKLVLKAYQVKYNPKKMKRLEKEYAAMKSKEMEEQIEIKRLRTENRLLKQRIGTLEKESAALADRLIQGA
As to B8, the binding result in assay [2], in assay [1] and in assay [3] was “binds” throughout.

B9: SEQ ID NO 106 (protein)
chain: GLAKGQLEKEVSALRLSNSNLLEELGELGRERQRLQGELQSLTQRLHREFVPKPEAQVQLQQLRRSVR
Take B9: the binding result in assay [2], in assay [1] and in assay [3] was “binds” each time.

B10: SEQ ID NO 108 (protein)
chain: GLAKGQLEKEVSALGLSNSNLLEELGELGRERQRLQGELQSLTQRLHREFVPKPEAQVLLQQLRRSVM
Consider B10, for which the binding entry in assay [1] is “binds”.

B11: SEQ ID NO 107 (protein)
chain: GLAKGQLEKEVSALRLSNSNLLEELGELGRERQRLQGELQSLTQRLHREFVPKPEAQVQLQQLRRSMR
B11: the binding entry in assay [1] is listed as “binds”.

B12: SEQ ID NO 4 (protein)
chain: SALRKWKGMLSRLQELRKEEETQLRLKAALHDQLNRLKVEELALQSMINSRGRTETLSSQPAPEQLCDMSLHVDNEVTINQKL
Take B12: the binding entry in assay [1] is “binds”.

B13: SEQ ID NO 5 (protein)
chain: SALRKWKGMLSRLQELRKEEETQLHLKAALHDQLNRLKVEELALQSMINSRGRTETLSSQPAPEQLCDMSLHVDNEVTINQKL
For B13, in assay [1], the binding entry was “binds”.

B14: SEQ ID NO 3 (protein)
chain: SALRKWKGMLSRLQELRKEEETQLRLKAALHDQLNRLKVEELALQSMINSRGRTETLSSQPAPEQLCDMSLHVDHEVTINQTTL
As to B14, in assay [1], the binding result is reported as “binds”.

B15: SEQ ID NO 17 (protein)
chain: LRKWKGMLSRQQEPRKEEETLLRLKAALRDQLNRLKVEELALQSMINSRGRTETLSSQPAPEQLCDMSLHVDNEVTINQTTLKLSTRSPMEEEEV
On to B15, for which, in assay [1], the binding result is on record as “binds”.

B16: SEQ ID NO 2 (protein)
chain: VEGSALRKWKGMLSRLQELRKEEETLLRLKAALHDQLNRLKVEELALQSVINSRGRTETLSSQPAPEQLCDMSLHVDHEVTINQTT
As for B16, the binding entry in assay [2] and in assay [1] was “binds” each time.

B17: SEQ ID NO 12 (protein)
chain: LRKWKGMLSRLQELRKEEETLLRLKAALHDQLNRLKVEELALQSMINSRGRTETLSSQPAR
As to B17, in assay [1], the binding entry was “binds”.

B18: SEQ ID NO 26 (protein)
chain: LRKWKGVLSRLQELRKEEETLLRLKAALHDQLNRLKVEELALQSMINSRGRTETLSSQPAPEQLCDMSLHVDSEVTINQTHK
On to B18, for which the binding entry in assay [1] is “binds”.
